# Data: paper PMC5996148
# Chains of the proteins cited; added tags and fusions are not shown. Lines headed by an entry give the natural chain unless they say otherwise; changes in a name come on top.
# UniProt P50579: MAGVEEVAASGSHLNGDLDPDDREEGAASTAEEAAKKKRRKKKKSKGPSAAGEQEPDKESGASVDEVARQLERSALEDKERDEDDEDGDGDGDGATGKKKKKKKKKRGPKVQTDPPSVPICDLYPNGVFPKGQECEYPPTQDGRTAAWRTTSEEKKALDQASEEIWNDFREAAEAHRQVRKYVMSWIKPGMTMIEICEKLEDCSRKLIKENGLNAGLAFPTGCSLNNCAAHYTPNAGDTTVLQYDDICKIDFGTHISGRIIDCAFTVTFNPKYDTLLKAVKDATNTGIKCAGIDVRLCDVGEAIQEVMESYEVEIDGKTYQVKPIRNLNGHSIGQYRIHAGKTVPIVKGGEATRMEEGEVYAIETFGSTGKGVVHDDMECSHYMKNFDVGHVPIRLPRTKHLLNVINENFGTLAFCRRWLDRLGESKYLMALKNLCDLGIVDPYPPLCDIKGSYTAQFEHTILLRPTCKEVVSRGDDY
# UniProt Q9UBP6: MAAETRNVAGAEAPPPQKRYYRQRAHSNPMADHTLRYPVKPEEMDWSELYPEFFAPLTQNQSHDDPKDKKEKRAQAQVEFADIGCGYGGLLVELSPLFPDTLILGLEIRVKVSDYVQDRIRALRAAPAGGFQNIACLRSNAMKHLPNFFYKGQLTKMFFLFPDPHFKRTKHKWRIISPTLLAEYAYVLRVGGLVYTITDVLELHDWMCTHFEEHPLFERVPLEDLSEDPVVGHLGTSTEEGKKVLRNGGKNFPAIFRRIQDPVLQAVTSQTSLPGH
# Values joined by “and” are separate entries in the source; they are usually repeats but may differ in a detail not shown here. Identical values can stand only once. The list shows a part of the results. For some assays here: The exact form of the protein is not confirmed.
# Experiments:
# Experiment in all cases: protein microarray (ProtoArray v5.0), streptavidin-Alexa Fluor 647
# Conditions in all cases: 3'-biotin; 20 mM Tris (pH 7.5), 5 mM MgCl2, 100 mM KCl, 0.1% Tween-20, A/T-rich and random oligonucleotide blockers; temperature not stated; high values mean tight binding
# [1] = system: MAPK9 (human)
# [2] = system: MARVELD2 (human)
# [3] = system: MASP2 (human)
# [4] = system: MAT1A (human)
# [5] = system: MAT2B (human)
# [6] = system: MB (human)
# [7] = system: MCFD2 (human)
# [8] = system: MCM2 (human)
# [9] = system: MDP-1 (human)
# [10] = system: MED21 (human)
# [11] = system: MED28 (human)
# [12] = system: MEF2B (human)
# [13] = system: MEIS2 (human)
# [14] = system: MEIS3 (human)
# [15] = molecular target: METAP2 (UniProt P50579)
# [16] = molecular target: METTL1 (UniProt Q9UBP6)
# [17] = system: MFGE8 (human)
# [18] = system: MGC10334 (human)
# [19] = system: MGC10600 (human)
# [20] = system: MGC10955 (human)
sequence,measurement,setting,value
GGGGACAGGGGTATGGGGAGGGG [G4-3 biotinylated (CtG)],binding signal,[1],-0.33 z-score
same,binding signal,[2],-0.333 z-score
same,binding signal,[3],-0.332 z-score
same,binding signal,[4],-0.326 z-score
same,binding signal,[5],-0.318 z-score
same,binding signal,[6],-0.33 z-score
same,binding signal,[7],-0.317 z-score
same,binding signal,[8],-0.347 z-score and -0.33 z-score
same,binding signal,[9],-0.334 z-score and -0.329 z-score
same,binding signal,[10],-0.341 z-score
same,binding signal,[11],-0.335 z-score
same,binding signal,[12],-0.326 z-score
same,binding signal,[13],-0.34 z-score and -0.339 z-score
same,binding signal,[14],-0.336 z-score
same,binding signal,[15],8.14 z-score
same,binding signal,[16],3.98 z-score
same,binding signal,[17],-0.312 z-score
same,binding signal,[18],-0.331 z-score
same,binding signal,[19],-0.328 z-score
same,binding signal,[20],-0.306 z-score
